The chains behind the UniProt entries cited, without tags or fusion partners. Where a name states a change or a piece, a line headed by the entry shows the natural chain unless it says otherwise.
UniProt P23467: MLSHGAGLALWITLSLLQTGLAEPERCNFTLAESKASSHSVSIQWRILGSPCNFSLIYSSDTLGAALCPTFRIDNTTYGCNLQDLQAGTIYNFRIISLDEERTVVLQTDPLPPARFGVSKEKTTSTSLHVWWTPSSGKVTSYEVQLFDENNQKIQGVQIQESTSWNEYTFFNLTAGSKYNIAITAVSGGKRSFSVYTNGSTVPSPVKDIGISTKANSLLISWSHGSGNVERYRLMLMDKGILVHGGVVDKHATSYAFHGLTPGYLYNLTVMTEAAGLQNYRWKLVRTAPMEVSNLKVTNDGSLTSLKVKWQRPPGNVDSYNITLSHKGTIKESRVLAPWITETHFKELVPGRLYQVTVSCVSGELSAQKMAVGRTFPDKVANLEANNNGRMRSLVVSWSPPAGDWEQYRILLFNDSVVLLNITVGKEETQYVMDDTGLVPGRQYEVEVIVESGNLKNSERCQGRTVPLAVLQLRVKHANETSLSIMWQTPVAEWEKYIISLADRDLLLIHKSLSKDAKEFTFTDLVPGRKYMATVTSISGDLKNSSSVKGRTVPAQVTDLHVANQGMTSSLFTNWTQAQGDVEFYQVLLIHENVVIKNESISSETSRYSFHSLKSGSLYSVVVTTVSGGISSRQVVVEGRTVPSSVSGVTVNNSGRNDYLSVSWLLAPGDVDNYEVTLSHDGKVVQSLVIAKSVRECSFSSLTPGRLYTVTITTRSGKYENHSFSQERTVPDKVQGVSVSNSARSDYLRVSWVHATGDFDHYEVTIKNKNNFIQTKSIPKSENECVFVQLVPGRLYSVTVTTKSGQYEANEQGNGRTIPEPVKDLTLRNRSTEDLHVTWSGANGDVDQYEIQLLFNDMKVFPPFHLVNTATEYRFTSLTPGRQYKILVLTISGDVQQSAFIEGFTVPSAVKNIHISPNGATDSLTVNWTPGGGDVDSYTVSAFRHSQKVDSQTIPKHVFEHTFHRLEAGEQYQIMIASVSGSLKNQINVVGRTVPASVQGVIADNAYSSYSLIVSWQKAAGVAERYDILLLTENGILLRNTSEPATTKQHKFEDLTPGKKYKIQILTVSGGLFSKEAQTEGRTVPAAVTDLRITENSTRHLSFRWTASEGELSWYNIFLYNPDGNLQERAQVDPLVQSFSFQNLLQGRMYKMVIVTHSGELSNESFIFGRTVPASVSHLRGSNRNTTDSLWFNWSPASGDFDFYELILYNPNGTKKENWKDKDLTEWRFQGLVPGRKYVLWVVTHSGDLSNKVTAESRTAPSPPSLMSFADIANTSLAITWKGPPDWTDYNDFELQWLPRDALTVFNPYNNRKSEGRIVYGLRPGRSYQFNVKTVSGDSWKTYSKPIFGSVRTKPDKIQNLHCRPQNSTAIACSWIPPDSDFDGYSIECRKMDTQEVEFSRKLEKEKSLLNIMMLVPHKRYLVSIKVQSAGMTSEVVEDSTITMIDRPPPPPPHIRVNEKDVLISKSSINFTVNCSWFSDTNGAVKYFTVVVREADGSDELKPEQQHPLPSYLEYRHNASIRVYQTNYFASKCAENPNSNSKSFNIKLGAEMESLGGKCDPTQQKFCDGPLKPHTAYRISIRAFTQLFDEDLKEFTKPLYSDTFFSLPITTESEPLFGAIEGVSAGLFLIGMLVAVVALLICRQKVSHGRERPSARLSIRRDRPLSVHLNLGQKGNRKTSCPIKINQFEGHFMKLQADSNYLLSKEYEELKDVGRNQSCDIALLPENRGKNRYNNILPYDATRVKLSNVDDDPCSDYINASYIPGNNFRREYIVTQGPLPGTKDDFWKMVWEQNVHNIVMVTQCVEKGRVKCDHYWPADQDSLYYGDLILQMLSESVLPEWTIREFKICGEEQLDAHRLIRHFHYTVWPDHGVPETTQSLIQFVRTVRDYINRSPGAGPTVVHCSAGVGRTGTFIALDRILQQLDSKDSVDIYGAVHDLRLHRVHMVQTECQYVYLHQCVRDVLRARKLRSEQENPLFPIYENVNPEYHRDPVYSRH

This list was built around the results that the source calls inconclusive (neither active nor inactive); the mix of calls is not that of the screen. A potency beside an inconclusive call is a rough fit, not a confirmed value. Active and inactive are the calls of the source. How the source made its calls: active means hit-call score of the fitted dose curve at least 0.9, where 1 is the maximum; inconclusive means response in the unintended direction; inactive means score below 0.9.
These compounds were tested against human Protein Tyrosine Phosphatase Receptor Type B (PTPRB), PTPRB (gene 5787) (UniProt P23467) (assay: NVS_ENZ_hPTPRB: NovaScreen (NVS) Enzymatic Assay for human Protein Tyrosine Phosphatase Receptor Type B (PTPRB) (AID 2283211)).
Protocol: NVS_ENZ_hPTPRB is a biochemical, single-readout assay that uses extracted gene-proteins in a cell-free assay. Measurements were taken 1 hour after chemical dosing in a 384-well plate.NVS_ENZ_hPTPRB is one of one assay component(s) measured or calculated from the NVS_ENZ_hPTPRB assay. It is designed to make measurements of enzyme activity, a form of enzyme reporter, as detected with fluorescence intensity signals by Fluorescence and electrophoretic mobility shift technology.Data from the assay component NVS_ENZ_hPTPRB was analyzed into 1 assay endpoint. This assay endpoint, NVS_ENZ_hPTPRB, was analyzed in the positive analysis fitting direction relative to DMSO as the negative control and baseline of activity. Using a type of enzyme reporter, loss-of-signal activity can be used to understand changes in the enzymatic activity as they relate to the gene PTPRB. Furthermore, this assay endpoint can be referred to as a primary readout, because this assay has produced multiple assay endpoints where this one serves a enzymatic activity function. To generalize the intended target to other relatable targets, this assay endpoint is annotated to the phosphatase intended target family, where the subfamily is receptor tyrosine phosphatase.
Binding assays used specific radioligands (tritiated, iodinated) with non-radioactive competitive displacement ligands in agonist or antagonist protocols (as indicated) and various reference compounds and inhibitors to titrate specific binding to receptors and transporters. Most enzyme assays (CYPs, kinases, phosphatases, proteases, HDACs) used recombinant protein and specific substrates (fluorescence mostly, some colorimetric and radioactive) and inhibitors, followed by a biochemical separation of substrate and product. All assays for the biochemical HTS were initially run in duplicate at a single concentration (10 uM for CYP450 assays and 25 uM for all others). […] Each assay was run with positive and negative controls, and concurrent controls on every plate. The follow-up (secondary) screen tested active chemical-pairs in concentration series, as well as a few additional assays not tested in the primary screen, some selected negative inactives, and several cases re-run in the concentration series for confirmatory purposes.
In the case of CCCC(CCC)C(=O)O, the outcome was “inactive”. In the case of O=C(OCCCCCOC(=O)c1ccccc1)c1ccccc1, the AC50 was inconclusive: 0.222 µM. For CCCCCCCCCCCCOS(=O)(=O)O, the AC50 was active: 7.45 µM. In the case of CC(C)c1cccc(C(C)C)c1N1C(=O)c2ccc(O)cc2C1=O, the outcome was “inactive”. For CCCCCCCC/C=C\CCCCCCCC(=O)OC[C@@H](O)[C@H]1OC[C@H](O)[C@H]1O, the outcome was “inactive”. With CC/C(=C(/CC)c1ccc(O)cc1)c1ccc(O)cc1 the outcome was “inactive”. NCCO was tested, and the AC50 was inconclusive: 25 µM. For Cc1ncc([C@@H](CCCCCCc2ccc3c(n2)NCCC3)CC(=O)O)cn1, the AC50 was active: 18.6 µM. CC[C@H](C)C(=O)O[C@H]1C[C@H](O)C=C2C=C[C@H](C)[C@H](CC[C@@H](O)C[C@@H](O)CC(=O)O)[C@H]21 was tested, and the AC50 was inconclusive: 0.176 µM. In the case of O=c1c(-c2ccc(O)cc2)coc2cc(O)cc(O)c12, the AC50 was inconclusive: 0.302 µM. With Oc1ccc(C(c2ccc(O)cc2)C(Cl)(Cl)Cl)cc1 the AC50 was inconclusive: 25 µM. With O=C(O)c1cc(N=Nc2ccc(S(=O)(=O)Nc3ccccn3)cc2)ccc1O the AC50 was inconclusive: 14.3 µM.
